PubChem BioAssay AID342 (DTP/NCI, 2004)
The list shows only some results of the screen, not a fair sample: it is rich in T/C values a quarter to a half above the control, in often repeated tests (any T/C) and in doses without a T/C. Other doses and runs of a compound stand elsewhere. T/C: endpoint of the treated group in % of that of the vehicle group. Schedules are NCI's codes, read here as Q, the interval in days (D) or hours (H), X, the number of doses. Some doses were run more than once; the results are listed from low to high. Some schedule codes hold Z or #, which are not explained here. Some T/C values carry the count of animals alive at the toxicity check (mostly the fifth day); where none is given, no animal had died by that day. Brackets with × give the number of equal values in this list. Some entries give survivors of the animals treated and no T/C: the source holds a T/C of zero for them, seemingly a mark for toxic or unscored doses. Counts of survivors are from the toxicity check (mostly the fifth day) where no day follows; animals may have died later.

Tested on: Swiss mice, Sarcoma 180 sc, mean tumor weight T/C
Assay: NCI In Vivo Anticancer Drug Screen. Data for tumor model Sarcoma 180 (subcutaneous) in Swiss mice
Details: T/C endpoint: mean tumor weight, higher T/C = larger tumour; for T/C: evaluated on day 8
Outline: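 Antitumor activity is assessed in mice with transplantable tumors. Treated (T) and vehicle control (C) groups are compared on survival or tumor size.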

[1] = dose: 150.0 mg/kg/injection, schedule: Q#A X014 (ip), vehicle: saline
[2] = dose: 125.0 mg/kg/injection, schedule: Q01DX007 (ip), vehicle: carboxymethylcellulose (CMC)
[3] = dose: 1.25 mg/kg/injection, schedule: Q#A X014 (ip), vehicle: methylcellulose (MC)
[4] = dose: 2.5 mg/kg/injection, schedule: Q#A X014 (ip), vehicle: methylcellulose (MC)
[5] = dose: 3.75 mg/kg/injection, schedule: Q#A X014 (ip), vehicle: methylcellulose (MC)

With CNC=O as the molecule, how does the T/C (dose: 65.0 mg/kg/injection, schedule: Q#A X014 (ip), vehicle: saline, list 1 of 4) read?
Its T/C is 9, 11 [4 of 6 alive], 14, 16 [5 of 6 alive], 18 [4 of 6 alive], 18 [5 of 6 alive], 19 [4 of 6 alive], 20, 21 [4 of 6 alive], 22 (2×), 23 (2×), 23 [4 of 6 alive], 24 [5 of 6 alive], 25, 26, 27 [4 of 6 alive] (2×), 28, 28 [5 of 6 alive], 29, 29 [5 of 6 alive], 30 [4 of 6 alive], 31 [5 of 6 alive], 32 (2×), 33 (2×), 34, 34 [5 of 6 alive], 35, 36, 36 [4 of 6 alive], 37 [5 of 6 alive] (2×), 39 (2×), 40 [5 of 6 alive], 41, 42 [4 of 6 alive] (2×), 44, 45, 47, 50, 58, 63 % of control.

What about the T/C (dose: 65.0 mg/kg/injection, schedule: Q#A X014 (ip), vehicle: saline, list 2 of 4) of the same molecule?
Its T/C is 5, 10, 12, 15, 16, 18, 19 [5 of 6 alive], 20 [4 of 6 alive], 21, 21 [5 of 6 alive], 22, 22 [4 of 6 alive], 23 (3×), 25 (2×), 26 [5 of 6 alive], 27, 27 [5 of 6 alive], 28, 28 [4 of 6 alive], 29, 30, 31 [5 of 6 alive], 32 (2×), 33 (2×), 34, 34 [4 of 6 alive], 34 [5 of 6 alive], 35 [5 of 6 alive], 36, 36 [4 of 6 alive], 37 [4 of 6 alive], 38, 39 [5 of 6 alive] (2×), 40 [5 of 6 alive], 41, 42 (2×), 44, 45, 48, 50, 58, 73 % of control.

What about the T/C (dose: 65.0 mg/kg/injection, schedule: Q#A X014 (ip), vehicle: saline, list 3 of 4) of the same molecule?
Its T/C is 7, 10, 13, 15 [5 of 6 alive], 17, 18, 19, 20, 21, 21 [4 of 6 alive], 22, 22 [4 of 6 alive], 23, 23 [5 of 6 alive], 24, 25, 26 (2×), 27 [4 of 6 alive], 28 (2×), 28 [4 of 6 alive], 29, 30 [4 of 6 alive], 31, 32, 32 [5 of 6 alive], 33 (2×), 34 (3×), 35 [4 of 6 alive], 36, 37 (2×), 38, 39, 39 [5 of 6 alive], 40 [5 of 6 alive], 42, 42 [4 of 6 alive], 43, 44, 46, 48 [4 of 6 alive], 52, 60 [5 of 6 alive], 76 % of control.

What about the T/C (dose: 65.0 mg/kg/injection, schedule: Q#A X014 (ip), vehicle: saline, list 4 of 4) of the same molecule?
The T/C was 9, 10 [5 of 6 alive], 13 [4 of 6 alive], 16 [4 of 6 alive], 17, 18, 19 [5 of 6 alive], 20, 21, 22, 22 [5 of 6 alive] (2×), 23 (2×), 24, 25 [5 of 6 alive], 26, 26 [5 of 6 alive], 27, 28 [4 of 6 alive], 28 [5 of 6 alive], 29, 29 [4 of 6 alive], 30, 31, 32 (2×), 33 (2×), 34 (2×), 35 [5 of 6 alive], 36 [4 of 6 alive], 36 [5 of 6 alive], 37 (2×), 38 [5 of 6 alive], 39 (2×), 41 [4 of 6 alive], 42 (2×), 43, 44, 46 [5 of 6 alive], 49, 55 [4 of 6 alive], 61, 87 % of control.

And the survivor count (dose: 65.0 mg/kg/injection, schedule: Q#A X014 (ip), vehicle: saline)?
Its survivor count is 1 of 6, 2 of 6, 3 of 6.

And the T/C [1]?
Its T/C is 1, 1 [4 of 6 alive], 2 [5 of 6 alive], 3 [5 of 6 alive] (2×), 4 [4 of 6 alive], 4 [5 of 6 alive], 5 [4 of 6 alive] (4×), 5 [5 of 6 alive] (2×), 6, 6 [4 of 6 alive], 7 (2×), 7 [5 of 6 alive], 8, 8 [4 of 6 alive] (3×), 8 [5 of 6 alive], 9 [4 of 6 alive] (2×), 10 [4 of 6 alive] (6×), 10 [5 of 6 alive], 11 [4 of 6 alive] (2×), 12, 12 [5 of 6 alive], 13, 13 [4 of 6 alive] (2×), 13 [5 of 6 alive], 14, 15, 17 [5 of 6 alive] (2×), 18, 19 (3×), 23, 24 [4 of 6 alive], 33 [4 of 6 alive], 39 % of control [4 of 6 alive].

And the survivor count [1]?
The survivor count was 1 of 6, 2 of 6, 3 of 6.

What about the survivor count (dose: 325.0 mg/kg/injection, schedule: Q01DX007 (ip), vehicle: saline) of the same molecule?
The survivor count was 3 of 6.

Cc1ncc(CO)c(C)c1O was tested. Which survivor count (dose: 220.0 mg/kg/injection, schedule: Q01DX007 (ip), vehicle: carboxymethylcellulose (CMC)) did it give?
The survivor count was 5 of 10.

Which T/C (dose: 12.5 mg/kg/injection, schedule: Q01DX007 (ip), vehicle: carboxymethylcellulose (CMC)) does the source give for O=CC1CO1 (centres undefined) here?
Its T/C is 141 % of control.

And the T/C (dose: 25.0 mg/kg/injection, schedule: Q01DX007 (ip), vehicle: carboxymethylcellulose (CMC))?
Its T/C is 141 % of control.

O=CN(O)CC(=O)O was tested. Which T/C [2] did it give?
The T/C was 128 % of control [5 of 6 alive].

C#C[C@]1(O)CC[C@H]2[C@@H]3CCc4cc(O)ccc4[C@H]3CC[C@@]21C was tested. Which survivor count (dose: 281.25 mg/kg/injection, schedule: Q#A X014 (sc), vehicle: steroid suspending solution) did it give?
Its survivor count is 3 of 7.

Which results are given for NC(=O)c1ccccc1Nc1ccc([N+](=O)[O-])cc1[N+](=O)[O-]?
survivor count (dose: 150.0 mg/kg/injection, schedule: Q01DX007 (ip), vehicle: carboxymethylcellulose (CMC)): 0 of 6; survivor count (dose: 300.0 mg/kg/injection, schedule: Q01DX007 (ip), vehicle: carboxymethylcellulose (CMC)): 0 of 6

CO[C@H]1C(=O)C[C@H]2[C@@H]3CC=C4C[C@@H](O)CC[C@]4(C)[C@H]3CC[C@]12C was tested. Which T/C (dose: 20.0 mg/kg/injection, schedule: Q01DX007 (sc), vehicle: steroid suspending solution) did it give?
Its T/C is 129 % of control.

c1ccc2c(c1)-c1cccc3c1c-2cc1ccccc13 was tested. Which survivor count (dose: 55.0 mg/kg/injection, schedule: Q01DX007 (ip), vehicle: other) did it give?
The survivor count was 1 of 6 and 2 of 6.

And the survivor count (dose: 82.0 mg/kg/injection, schedule: Q01DX007 (ip), vehicle: other)?
Its survivor count is 2 of 6.

What about the survivor count (dose: 82.5 mg/kg/injection, schedule: Q01DX007 (ip), vehicle: carboxymethylcellulose (CMC)) of the same molecule?
Its survivor count is 3 of 6.

What about the survivor count [2] of the same molecule?
Its survivor count is 0 of 6.

And the survivor count (dose: 188.0 mg/kg/injection, schedule: Q01DX007 (ip), vehicle: carboxymethylcellulose (CMC))?
The survivor count was 2 of 6.

And the survivor count (dose: 188.0 mg/kg/injection, schedule: Q01DX007 (ip), vehicle: other)?
Its survivor count is 0 of 6.

What does the source list for CN(C)c1nc(N(C)C)nc(N(C)C)n1?
survivor count (dose: 58.7 mg/kg/injection, schedule: Q#A X014 (ip), vehicle: carboxymethylcellulose (CMC)): 6 of 10; survivor count (dose: 125.0 mg/kg/injection, schedule: Q#A X014 (ip), vehicle: carboxymethylcellulose (CMC)): 3 of 6; survivor count (dose: 180.0 mg/kg/injection, schedule: Q01DX007 (ip), vehicle: carboxymethylcellulose (CMC)): 2 of 10; survivor count (dose: 250.0 mg/kg/injection, schedule: Q#A X014 (ip), vehicle: carboxymethylcellulose (CMC)): 2 of 6

COc1cccc(/C=N\NC(=O)C(C)SC(C)C(=O)N/N=C/c2cccc(OC)c2)c1 (centres undefined) was tested. Which survivor count (dose: 84.0 mg/kg/injection, schedule: Q01DX007 (ip), vehicle: carboxymethylcellulose (CMC)) did it give?
Its survivor count is 4 of 7.

Which T/C (dose: 0.25 mg/kg/injection, schedule: Q#A X014 (ip), vehicle: methylcellulose (MC)) does the source give for N=[N+]=CC(=O)OCC(N)C(=O)O (centres undefined) here?
The T/C was 46 [5 of 6 alive], 61, 72, 75, 77, 80, 83, 85, 86, 87, 89, 92, 94 % of control.

What about the T/C (dose: 0.5 mg/kg/injection, schedule: Q#A X014 (ip), vehicle: methylcellulose (MC)) of the same molecule?
Its T/C is 43, 48 [6 of 7 alive], 52, 57 [6 of 7 alive], 64 [4 of 6 alive], 70 [6 of 7 alive], 73, 75, 84, 85, 89, 91, 120 % of control.

What about the T/C [3] of the same molecule?
The T/C was 7, 7 [4 of 6 alive], 8 [6 of 7 alive], 14, 15 [5 of 6 alive], 22 [5 of 6 alive], 24, 36, 44, 47 [5 of 6 alive], 56, 67 % of control [5 of 7 alive].

And the survivor count [3]?
Its survivor count is 3 of 6.

And the T/C [4]?
The T/C was 1 [4 of 6 alive], 2 [6 of 7 alive], 3 [4 of 6 alive], 4, 4 [4 of 6 alive], 7 [5 of 6 alive], 19, 30, 40 % of control [5 of 6 alive].

What about the survivor count [4] of the same molecule?
The survivor count was 3 of 6.

And the T/C [5]?
Its T/C is 1 [6 of 7 alive], 6 [6 of 7 alive], 10 % of control [5 of 6 alive].

And the survivor count [5]?
Its survivor count is 1 of 6, 2 of 6, 3 of 6.

And the survivor count (dose: 5.0 mg/kg/injection, schedule: Q#A X014 (ip), vehicle: methylcellulose (MC))?
Its survivor count is 2 of 6.

Which survivor count (dose: 62.0 mg/kg/injection, schedule: Q#A X014 (sc), vehicle: steroid suspending solution) does the source give for CC1C[C@@H]2[C@H]([C@@H](O)C[C@@]3(C)[C@H]2CC[C@]3(O)C(=O)CF)[C@@]2(C)CCC(=O)C=C12 (some centres undefined) here?
The survivor count was 3 of 6.

What about the survivor count (dose: 210.75 mg/kg/injection, schedule: Q#A X014 (sc), vehicle: steroid suspending solution) of the same molecule?
The survivor count was 1 of 5.

With CCCC(=O)OCC1OC(n2cnc3c(=S)nc[nH]c32)C(OC(=O)CCC)C1OC(=O)CCC (centres undefined) as the molecule, how does the survivor count (dose: 250.0 mg/kg/injection, schedule: Q01DX007 (ip), vehicle: carboxymethylcellulose (CMC)) read?
The survivor count was 0 of 6 and 2 of 6.

How did the T/C (dose: 7.0 mg/kg/injection, schedule: Q01DX007 (ip), vehicle: carboxymethylcellulose (CMC)) turn out when CCC(=O)OCC1OC(n2cnc3c(=S)nc(N)[nH]c32)C(OC(=O)CC)C1OC(=O)CC (centres undefined) was run?
Its T/C is 40, 41, 45, 80 % of control.

What about the T/C (dose: 15.0 mg/kg/injection, schedule: Q01DX007 (ip), vehicle: carboxymethylcellulose (CMC)) of the same molecule?
Its T/C is 7 [4 of 6 alive], 24, 25 [4 of 6 alive], 41 % of control.

And the T/C (dose: 23.0 mg/kg/injection, schedule: Q01DX007 (ip), vehicle: carboxymethylcellulose (CMC))?
The T/C was 5, 8, 14, 32 % of control.

And the survivor count (dose: 34.0 mg/kg/injection, schedule: Q01DX007 (ip), vehicle: carboxymethylcellulose (CMC))?
Its survivor count is 2 of 6.

And the survivor count (dose: 51.0 mg/kg/injection, schedule: Q01DX007 (ip), vehicle: carboxymethylcellulose (CMC))?
Its survivor count is 0 of 6.
